Experimental data as given in patent US20180228743A1, “COMPOUNDS AND METHODS OF PROMOTING MYELINATION” (Case Western Reserve University, priority 2016, published 2018).
Values joined by “and” are separate entries in the source; they are usually repeats but may differ in a detail not shown here. Identical values can stand only once. Counter-ions that a name gives are not always drawn. For some of these results: The name of at least one read-out is uncertain. Some of these results come from one statement about several compounds together.

How the values were obtained:
EpiSC-derived OPCs [1] = test: High-throughput screening of 3,000 bioactive small molecules for MBP+ oligodendrocyte formation from OPCs; type: cell-based, mouse; details: 2 μM, 72 h; for % 0ligos: MBP+ oligodendrocytes; for fold-change in % MBP + oligodendrocytes: relative to DMSO controls of the same plate
Description: Plates were imaged on the Operetta High Content Imaging and Analysis system (PerkinElmer) and a set of 6 fields captured from each well resulting in an average of 1200 cells being scored per well. Analysis (PerkinElmer Harmony and Columbus software) began by identifying intact nuclei stained by DAPI; that is, those traced nuclei that were larger than 300 μm^2 in surface area. Each traced nucleus region was then expanded by 50% and cross-referenced with the […] (MBP) stain to identify oligodendrocyte nuclei, and from this the percentage of oligodendrocytes was calculated. In some experiments, the total process length of MBP+ oligodendrocytes was calculated as previously described.
EpiSC-derived OPCs were grown and expanded in poly-ornithine and laminin-coated flasks before harvesting for plating. Cells were dispensed in differentiation media supplemented with Noggin (R&D Systems; 100 ng/ml), Neurotrophin 3 (R&D Systems; 10 ng/ml), cAMP (Sigma; 50 μM), and IGF-1 (R&D Systems; 100 ng/ml)) using a Biotek EL406 Microplate Washer Dispenser (Biotek) equipped with 5 μL dispense cassette (Biotek), into poly-D-lysine/laminin (Sigma, L2020; 4 μg/ml)-coated sterile, 384-well, CellCarrier ultra plates (PerkinElmer), to a final density of 12,500 cells per well and allowed to attach for 45 min before addition of drug. A 3 mM stock of bioactive compound library in dimethylsulphoxide (DMSO) were prepared in an Abgene storage 384-well plate (ThermoFisher Scientific; AB1055). These were added to assay plates using a 50 nL solid pin tool attached to Janus automated workstation (Perkin Elmer), resulting in a final screening concentration of 2 μM. Cells were incubated at 37° C. for 1 hour and then T3 (Sigma; 40 ng/ml) was added to all wells except negative controls, to which FGF (20 ng/ml) was added instead. Negative controls and T3-alone were included in each assay plate. After incubation at 37° C. for 72 h, cells were fixed, washed and stained similar to 96-well OPC assay protocol, although all the washing steps were performed using a Biotek EL406 Microplate Washer Dispenser (Biotek) equipped with a 96-well aspiration manifold. Cells were stained with DAPI (Sigma; 1 μg/ml) and MBP antibody (Abcam, ab7349; 1:100). Plates were imaged on the Operetta High Content Imaging and Analysis system (PerkinElmer) and a set of 4 fields captured from each well resulting in an average of 700 cells being scored per well. Analysis was performed as in High-Content Imaging and Analysis, above. All plates for the primary screen were processed and analyzed simultaneously to minimize variability. Molecules causing more than 20% reduction in nuclear count relative to DMSO control wells were removed from consideration, and hits were called on the basis of largest fold-increase in percentage of MBP+ oligodendrocytes relative to DMSO controls within the same plate.

EpiSC-derived OPCs [2] = test: In vitro phenotypic screening of OPCs (MBP+ oligodendrocytes at 72 h); type: cell-based, mouse
[3] = listed as Raloxifene hydrochloride, HCl

For `Clc1ccccc1C(c1ccccc1)(c1ccccc1)n1ccnc1` [Clotrimazole], the “% 0ligos” value (EpiSC-derived OPCs [1]) was 34.36% and 27.93% and the “fold-change in % MBP + oligodendrocytes” value (EpiSC-derived OPCs [1]) was 5.88.

With `O=C(c1ccc(OCCN2CCCCC2)cc1)c1c(-c2ccc(O)cc2)sc2cc(O)ccc12` [Raloxifene HCl] the “% 0ligos” value (EpiSC-derived OPCs [1]; HCl) was 35.01%, the “% 0ligos” value (EpiSC-derived OPCs [1]; [3]) was 33.33% and the “fold-change in % MBP + oligodendrocytes” value (EpiSC-derived OPCs [1]; [3]) was 3.77.

For `COc1ccc(S(=O)(=O)N2CCC(N3CCC(C)CC3)CC2)cc1` [TASIN-1], the “dose effective for enhancing oligodendrocyte formation” value (EpiSC-derived OPCs [2]) was “below 100 nM”.

For `CCC(C)(C)c1ccc(CC(C)CN2C[C@@H](C)O[C@@H](C)C2)cc1` (stereo partly shown) [amorolfine, Amorolfine], the “dose effective for enhancing oligodendrocyte formation” value (EpiSC-derived OPCs [2]) was “below 100 nM”.

With `CC(C(O)c1ccc(O)cc1)N1CCC(Cc2ccccc2)CC1` (stereo not shown) [lfenprodil Tartrate] the “% 0ligos” value (EpiSC-derived OPCs [1]) was 41.41%, the “% 0ligos” value (EpiSC-derived OPCs [1]; listed as lfenprodil tartrate) was 33.69% and the “fold-change in % MBP + oligodendrocytes” value (EpiSC-derived OPCs [1]) was 3.61.
